# Laboratory results: PubChem BioAssay AID2551 (National Center for Advancing Translational Sciences (NCATS), 2010)
# Protein sequences, listed by entry. Tags and fused reporters are not part of them. Lines headed by an entry give the natural chain unless they say otherwise; changes in a name come on top.
# UniProt P51450: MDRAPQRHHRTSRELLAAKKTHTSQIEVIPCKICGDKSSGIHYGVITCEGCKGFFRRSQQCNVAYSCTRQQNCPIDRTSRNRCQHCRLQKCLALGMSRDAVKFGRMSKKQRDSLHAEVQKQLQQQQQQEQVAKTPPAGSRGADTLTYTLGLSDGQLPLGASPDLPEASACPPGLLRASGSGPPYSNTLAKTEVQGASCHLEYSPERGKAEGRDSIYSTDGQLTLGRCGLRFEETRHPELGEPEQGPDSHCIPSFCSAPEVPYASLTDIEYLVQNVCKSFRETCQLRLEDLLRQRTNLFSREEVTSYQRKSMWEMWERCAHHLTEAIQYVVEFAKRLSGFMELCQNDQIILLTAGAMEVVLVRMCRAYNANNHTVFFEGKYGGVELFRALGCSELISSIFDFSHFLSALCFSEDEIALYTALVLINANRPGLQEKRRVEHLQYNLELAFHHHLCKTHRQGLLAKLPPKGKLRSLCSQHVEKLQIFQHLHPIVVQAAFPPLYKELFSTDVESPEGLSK
# The whole screen tested about 310,000 compounds, of which about 17,000 (5.5%) were called active. This list was built around the results that the source calls inconclusive (neither active nor inactive); the mix of calls is not that of the screen. Calls come from the whole dose curve; as a rule, active = well fitted inhibition curve with a large enough effect; inconclusive = small, poorly fitted or top-dose-only effect, or effect the other way; inactive = no such curve, though single readings can be large or run the other way. Where the call is inconclusive, the potency comes from a doubtful curve fit.
# Target: Nuclear receptor ROR-gamma (Mus musculus) (UniProt P51450)
# Assay: qHTS for inhibitors of ROR gamma transcriptional activity; note: nearly all actives have a fitted effect of over 60% in size
# Conditions: Drosophila S2 Gal4-RORgamma UAS-luciferase reporter, 20 h; activity change, negative = inhibition: at 53.6 µM (top of the series)
# Outline: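 Using a luciferase readout, inhibitors were identified by reduced reporter activity in Drosophila cells coexpressing a copper-inducible Gal4–ROR gamma fusion and UAS-driven Photinus luciferase, incubated 20 hr after 700 uM copper sulfate.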
# % is set by controls: 0 for no effect and ±100 for the full control effect; potency is the fitted concentration of half-maximal effect.
Structure (SMILES),"activity change, negative = inhibition",Potency
CCOC(=O)c1nnc(-c2ccc(C)cc2)nc1Sc1cccc(Cl)c1,inactive: -15.5%,–
CCOc1ccc(NC(=NCc2ccc3c(c2)OCO3)SC2CC(=O)N(c3ccc(C(=O)O)cc3)C2=O)cc1 (stereo unspecified),–,"inconclusive: 35.5 µM [activator, single point]"
CCC(Sc1nccn1C)C(=O)Nc1ccc(Cl)cn1 (stereo unspecified),–,"inconclusive: 17.8 µM [inhibitor, single point]"
CC1(C)Cc2c(cnn2-c2ccc(F)cc2)C(NC(=O)CN2CCCCC2=O)C1 (stereo unspecified),–,active: 3.55 µM
CCOC(=O)C1CCCN(C(=S)Nc2cc(C)cc(C)c2)C1 (stereo unspecified),–,active: 11.2 µM
O=C(CCCN1C(=O)/C(=C/c2cccc(Br)c2)SC1=S)Nc1cccnc1,–,active: 14.1 µM
O=C(Nc1cccnc1Cl)c1cc(-c2cccc(O)c2)on1,–,"inconclusive: 35.5 µM [inhibitor, single point]"
Cc1ccc(NC(=O)CCCC(=O)OC(C)C(=O)c2ccccc2)cc1 (stereo unspecified),inactive: -3.26%,–
Cc1ccc(/C=N/N2C(=S)SC(C)(C)C2N(O)C(=O)Nc2ccc([N+](=O)[O-])cc2)cc1 (stereo unspecified),–,"inconclusive: 35.5 µM [inhibitor, single point]"
Cc1cccc(C(=O)Oc2ccccc2/C=N/NC(=O)c2ccc(NC(=O)C(C)(C)C)cc2)c1,inactive: -25.7%,–
O=C(CSc1ccccc1)Nc1cccc(S(=O)(=O)N2CCCC2)c1,–,"inconclusive: 15.8 µM [activator, partial curve]"
O=C(Nc1ccc2c(c1)CCC2)c1ccc(F)cc1,–,"inconclusive: 35.5 µM [inhibitor, single point]"
Fc1ccc2[nH]c3c(NCc4ccccc4)ncnc3c2c1,–,"inconclusive: 2.51 µM [activator, partial curve]"
Cc1cc(NC(=O)c2cc(CC(C)C)on2)n(-c2ccccc2)n1,–,"inconclusive: 3.16 µM [activator, full curve]"
O=C(NC1=NCCS1)c1sc2ccccc2c1Cl,–,"inconclusive: 35.5 µM [inhibitor, single point]"
CN1CCN(C(=O)CCN2C(=O)/C(=C/c3cccc(Br)c3)SC2=S)CC1,–,active: 15.8 µM
O=[N+]([O-])c1ccc(N2CCOCC2)nc1,–,"inconclusive: 10 µM [activator, partial curve]"
COc1ccc(NC2=NC(=S)N(c3cccc(C)c3)C23CCCCC3)cc1,–,active: 2 µM
O=C(NCCC1=CCCCC1)c1cc(-c2ccccn2)nc2ccccc12,–,"inconclusive: 25.1 µM [inhibitor, single point]"
C[C@@](N)(C(=O)O)c1ccc(C(=O)O)cc1,–,inactive
Cc1nc(-c2ccccc2O)n(-c2ccccc2)n1,–,"inconclusive: 14.1 µM [inhibitor, single point]"
Cc1ccc(-n2ncc(C(=O)NCc3ccc4c(c3)OCO4)c2NC(=O)c2ccco2)cc1C,inactive: 38.6%,–
Cc1cc(/C=C2/C(=N)N3C(c4ccccc4)=CSC3=NC2=O)c(C)n1-c1ccccc1,–,"inconclusive: 17.8 µM [activator, partial curve, poor fit]"
COc1cc(NC(=S)NCCSc2ccc(C)cc2)cc(OC)c1,–,active: 7.08 µM
CCN(CCNC(=O)Cn1c(=O)sc2ccccc21)c1ccccc1,inactive: -2.27%,–

Structure (SMILES),"activity change, negative = inhibition",Potency
Cc1ccc(CN2CCC(CNC(=O)C3CCCN(c4ncnc5c4nc4n5CCCCC4)C3)CC2)cc1 (stereo unspecified),inactive: 0.537%,–
CCOc1ccc(S(=O)(=O)NCc2ccccc2OC)cc1,–,"inconclusive: 35.5 µM [activator, single point]"
O=C(c1ccc([N+](=O)[O-])cc1)N1CCN=C1SCc1ccccc1,–,"inconclusive: 3.98 µM [activator, full curve]"
OCc1cc(Br)ccc1OCc1nc2ccccc2s1,inactive: -3.79%,–
CC(C)c1ccc(NC(=O)C2C3C=CC4(O3)C2C(=O)N(CCCN2CCOCC2)C4C(=O)NC2CCCCC2)cc1 (stereo unspecified),inactive: 2.43%,–
Cc1cccc(Cn2cc(/C=C/[N+](=O)[O-])c3ccccc32)c1,–,"inconclusive: 22.4 µM [inhibitor, single point]"
CCCCCCCCCCCCCC[n+]1ccc(C)cc1,–,"inconclusive: 12.6 µM [inhibitor, single point]"
COc1ccc(C(=O)NN2CCCCC2)cc1OC,inactive: 3.24%,–
O=C(CCCCCN1C(=O)c2ccccc2C1=O)Nc1ccc(F)cc1,–,"inconclusive: 10 µM [activator, partial curve, poor fit]"
O=C(Cc1ccc(Cl)cc1)c1c(O)cc(O)cc1O,–,"inconclusive: 15.8 µM [activator, partial curve]"
Cc1ccc(C)c(NC(=O)c2ccc(OC(=O)c3ccco3)cc2)c1,–,"inconclusive: 35.5 µM [activator, single point]"
Cc1[nH]c2ccccc2c1C(=O)COC(=O)c1c(-c2ccccc2)noc1C,–,"inconclusive: 35.5 µM [activator, single point]"
Cc1ccc(N(C)C(=O)CC(C)S(=O)(=O)c2ccc3c(c2)NC(=O)CO3)cc1 (stereo unspecified),inactive: -2.55%,–
CCCOC(=O)C1=C(C)OC23OC(N)=C(C#N)C12C(=O)c1ccccc13 (stereo unspecified),–,"inconclusive: 0.447 µM [activator, full curve, poor fit]"
COc1ccccc1N1CCN(C(=O)CSc2nc(-c3ccccc3)cc(=O)[nH]2)CC1,–,"inconclusive: 4.47 µM [activator, full curve, poor fit]"
COc1cc(-c2nnc(COc3ccc4cc(Br)ccc4c3)o2)cc(OC)c1OC,inactive: 6.97%,–
O=C(N/N=C/C=C\c1ccccc1[N+](=O)[O-])c1cccnc1,–,active: 10 µM
Cc1cccc(NC(=O)c2cc3c(=O)n4ccccc4nc3s2)c1,inactive: 18.1%,–
N#CC1=C(N)SC(N)=C(C#N)C1c1ccc([N+](=O)[O-])cc1,–,"inconclusive: 31.6 µM [inhibitor, single point]"
Cc1cccc(NC(=O)CC2Nc3cccc4cccc(c34)NC2=O)c1 (stereo unspecified),inactive: 31.1%,–
COc1ccccc1NC1=C(Cl)C(=O)N(c2ccccc2)C1=O,–,"inconclusive: 20 µM [activator, single point]"
O=C(CSc1nc2ccccc2[nH]1)N1CCN(c2ccc(F)cc2)CC1,–,"inconclusive: 12.6 µM [activator, partial curve]"
CCCCC(=O)N1CCCC(c2nc(-c3cccc(OC)c3)no2)C1 (stereo unspecified),inactive: 1.32%,–
Cc1ccc(-c2nc(SC(C)C(=O)N3CCOCC3)n[nH]2)cc1 (stereo unspecified),inactive: 12.1%,–
CC1(C)Cc2c(c(N3CCOCC3)nc3sc(C(=O)Nc4ccc(Cl)cc4)c(N)c23)CO1,–,"inconclusive: 20 µM [activator, single point]"
[O-]/[N+](=C/c1ccc(F)cc1)c1ccc(Cl)cc1,–,"inconclusive: 3.55 µM [activator, full curve]"

# 5 entries from above, with bars between the fields:
Structure (SMILES) | activity change, negative = inhibition | Potency
CCCCCCCCCCCCCC[n+]1ccc(C)cc1 | – | inconclusive: 12.6 µM [inhibitor, single point]
COc1ccc(C(=O)NN2CCCCC2)cc1OC | inactive: 3.24% | –
O=C(CCCCCN1C(=O)c2ccccc2C1=O)Nc1ccc(F)cc1 | – | inconclusive: 10 µM [activator, partial curve, poor fit]
O=C(Cc1ccc(Cl)cc1)c1c(O)cc(O)cc1O | – | inconclusive: 15.8 µM [activator, partial curve]
Cc1ccc(C)c(NC(=O)c2ccc(OC(=O)c3ccco3)cc2)c1 | – | inconclusive: 35.5 µM [activator, single point]

# The results go on.

Structure (SMILES),"activity change, negative = inhibition",Potency
CC(C)NC(=O)NC(=O)COC(=O)Cc1ccsc1,inactive: -10.1%,–
CCOc1ccc(C(=O)c2ccc([N+](=O)[O-])cc2Cl)cc1,inactive: -2.83%,–
O/N=C/c1cn(-c2ccccc2)nc1-c1cccnc1,inactive: 12.2%,–
CCOc1ccc(C(=O)N/N=C/c2cc(Cl)ccc2[N+](=O)[O-])cc1,–,"inconclusive: 25.1 µM [inhibitor, single point]"
O=C(CCn1c(=S)[nH]c2ccccc2c1=O)Nc1cccc(Cl)c1,–,"inconclusive: 35.5 µM [inhibitor, single point]"
O=C(Nc1ccc(Cl)c(C(=O)N2CCOCC2)c1)c1ccccc1,inactive: -2.78%,–
NNc1nc(NCc2ccccc2)nc(N2CCOCC2)n1,–,"inconclusive: 25.1 µM [inhibitor, single point]"
O=C(NC(=S)Nc1ccc(Br)cn1)c1cccs1,–,active: 2.24 µM
NC(=O)c1cc(-c2ccccc2)nc(N2CCOCC2)n1,inactive: -12.7%,–
O=C(COC(=O)c1ccc(O)cc1O)c1ccc2c(c1)OCO2,–,active: 7.08 µM
CC(=O)c1cccc(NC(=S)N2CCN(S(C)(=O)=O)CC2)c1,inactive: -0.8%,–
COc1ccc(CCNC(=O)CCC(=O)N2CC(C)Oc3ccc(Cl)cc32)cc1OC (stereo unspecified),–,"inconclusive: 15.8 µM [activator, single point]"
S=c1ccc2ccccc2[nH]1,–,"inconclusive: 35.5 µM [inhibitor, single point]"
O=c1c2ccccc2nnn1COc1cccc(Cl)c1,–,"inconclusive: 14.1 µM [activator, partial curve, poor fit]"
O=C(CSc1nc2ccccc2c(=O)n1-c1ccc(F)c(Cl)c1)Nc1cccc(S(=O)(=O)N2CCOCC2)c1,inactive: 40.5%,–
COC(=O)c1cccc(NC(=O)CSc2nnc(COc3cccc(C)c3)n2C)c1,–,"inconclusive: 1.26 µM [inhibitor, single point]"
CS(=O)(=O)N(CC(=O)N1CCN(Cc2ccccc2)CC1)Cc1ccccc1,–,"inconclusive: 7.08 µM [activator, full curve, poor fit]"
COc1ccc(CCN2CN(S(=O)(=O)c3ccc(OC)cc3)c3nc4ccccc4nc32)cc1,–,"inconclusive: 20 µM [activator, single point]"
CN1c2ccccc2N(C)C1(C)c1cccc2ccccc12,inactive: 21%,–
CCCN1CN(c2ccccc2)C(=S)N(c2ccccc2)C1,–,"inconclusive: 35.5 µM [inhibitor, single point]"
CCOC(=O)c1sc2nc(Cc3ccc(Cl)cc3)[nH]c(=S)c2c1C,–,active: 2.82 µM
O=C(CSCc1cnn(-c2ccccc2)c1-n1cccc1)NCc1ccc2c(c1)OCO2,–,"inconclusive: 35.5 µM [activator, single point]"
Cc1cn([C@H]2CC(F)[C@@H](CO)O2)c(=O)[nH]c1=O (stereo partly specified),inactive: -17.9%,–
CCN(CC)CCC(c1ccc2c(c1)OCO2)c1c(O)cc(OC)cc1OC (stereo unspecified),–,"inconclusive: 15.8 µM [inhibitor, single point]"
